Earlier results, collected in US20250121068A1, “BIFUNCTIONAL MOLECULES AS PROTEASOME STIMULATORS FOR IMPROVED TARGETED PROTEIN DEGRADATION, AND THEIR USES AS TARGETED BOOSTING DEGRADERS (TARBODS)” (BOOSTER THERAPEUTICS GMBH, priority 2021, published 2025).
Some entries share one result that the patent states for a list of compounds. At least one compound was matched to its structure with a doubt left.

System: 20S CP
Settings: at 25 μM; cited from earlier work

CCCCC/C=C\C/C=C\C/C=C\C/C=C\CCCC(=O)Nc1ccc(O)cc1 [AM404, AM-404]
increase of 20S CP activity over the basal level control: more than 400%
